From PubChem BioAssay AID248 (DTP/NCI, 2004)
The list shows only some results of the screen, not a fair sample: it gathers tests that were run many times, whatever their T/C, doses with no T/C, and many T/C values between a quarter and a half above the control. Other doses and runs of a compound stand elsewhere. T/C gives the treated animals as a percentage of the vehicle group. Some doses have a count of surviving animals in place of a T/C: the source holds a T/C of zero for them, seemingly a mark for toxic or unscored doses. Some survivor counts are full or nearly so, which does not show that the dose was tolerated: the source hardly ever lists a survival T/C far under the control, and the zero likely stands for such cases as well. Survivors were counted at the toxicity check, usually on the fifth day, unless a day is given; later deaths do not show. Schedule codes are those of the source, read here as Q, the interval in days (D) or hours (H), X, the number of doses. For survival time, this PubChem deposit counts one and a half times the control or more as active, and values a quarter to a half above the control carry no call in these data; other NCI protocols may use other cut-offs. Some T/C values are followed by the survivors on the day toxicity was checked, most often the fifth; without a count, all were alive then. Some entries were tested several times; the results are listed from low to high.

Test system: L1210 leukemia ip in BDF1 mice, survival T/C
Experiment: NCI In Vivo Anticancer Drug Screen. Data for tumor model L1210 Leukemia (intraperitoneal) in B6D2F1 (BDF1) mice
Settings: T/C endpoint: mean survival time, higher T/C = longer survival
[1] = dose: 50.0 mg/kg/injection, schedule: Q04DX003 (ip), vehicle: saline
[2] = dose: 200.0 mg/kg/injection, schedule: Q04DX003 (ip), vehicle: Klucel (hydroxypropylcellulose) (HPC)
[3] = dose: 200.0 mg/kg/injection, schedule: Q04DX003 (ip), vehicle: saline

COC1OC(CO)C(O)C(NC(=O)N(C)N=O)C1O (configuration not stated)
T/C (dose: 25.0 mg/kg/injection, schedule: Q01DX009 (ip), vehicle: saline): 125 % of control
survivor count (dose: 25.0 mg/kg/injection, schedule: Q04DX003 (ip), vehicle: saline): 6 of 6
T/C (dose: 50.0 mg/kg/injection, schedule: Q01DX009 (ip), vehicle: saline, evaluated on day 30): 132 and 137 % of control
T/C (dose: 50.0 mg/kg/injection, schedule: Q01DX009 (ip), vehicle: saline, evaluated on day 60): 140 % of control
T/C [1]: 127 % of control
survivor count [1]: 6 of 6
T/C (dose: 65.0 mg/kg/injection, schedule: Q01DX009 (ip), vehicle: saline): 137 % of control
T/C (dose: 66.0 mg/kg/injection, schedule: Q01DX009 (ip), vehicle: saline, evaluated on day 30): 126 % of control
T/C (dose: 66.0 mg/kg/injection, schedule: Q01DX009 (ip), vehicle: saline, evaluated on day 60): 137 % of control
T/C (dose: 100.0 mg/kg/injection, schedule: Q01DX009 (ip), vehicle: saline, evaluated on day 30): 131, 143, 159 % of control
T/C (dose: 100.0 mg/kg/injection, schedule: Q01DX009 (ip), vehicle: saline, evaluated on day 60): 145 and 165 % of control
T/C (dose: 100.0 mg/kg/injection, schedule: Q04DX003 (ip), vehicle: saline, evaluated on day 30): 130 [5 of 6 alive] and 142 % of control
T/C (dose: 100.0 mg/kg/injection, schedule: Q04DX003 (ip), vehicle: saline, evaluated on day 60): 135 % of control
survivor count (dose: 100.0 mg/kg/injection, schedule: Q04DX003 (ip), vehicle: saline): 6 of 6
T/C (dose: 150.0 mg/kg/injection, schedule: Q01DX009 (ip), vehicle: saline): 136 % of control
T/C [2]: 133 % of control
T/C [3]: 133 and 140 % of control
survivor count [3]: 6 of 6

N#CCN(CC#N)CC#N
survivor count (dose: 12.5 mg/kg/injection, schedule: Q04DX003 (ip), vehicle: saline with Tween-80): 6 of 6

O=C([O-])C1CCCCC1[I+]c1ccccc1 (configuration not stated)
survivor count (dose: 400.0 mg/kg/injection, schedule: Q04DX003 (ip), vehicle: saline): 1 of 6

O=C(O)c1c(-c2ccccc2)[nH]c2cc(Cl)ccc2c1=O
survivor count (dose: 400.0 mg/kg/injection, schedule: Q01DX001 (ip), vehicle: carboxymethylcellulose (CMC)): 1 of 4
survivor count (dose: 400.0 mg/kg/injection, schedule: Q01DX009 (ip), vehicle: Klucel (hydroxypropylcellulose) (HPC)): 2 of 6

CCCCCCCCCCSC#N
survivor count (dose: 80.0 mg/kg/injection, schedule: Q01DX001 (ip), vehicle: saline): 1 of 4
survivor count (dose: 100.0 mg/kg/injection, schedule: Q01DX001 (ip), vehicle: saline): 1 of 4
survivor count (dose: 200.0 mg/kg/injection, schedule: Q01DX001 (ip), vehicle: saline): 0 of 4
survivor count (dose: 400.0 mg/kg/injection, schedule: Q01DX001 (ip), vehicle: saline): 0 of 4

O=C1C=CC(=O)C(SCC(O)CO)=C1 (configuration not stated)
survivor count (dose: 75.0 mg/kg/injection, schedule: Q01DX001 (ip), vehicle: other): 0 of 6
survivor count (dose: 150.0 mg/kg/injection, schedule: Q01DX001 (ip), vehicle: other): 2 of 6
survivor count (dose: 300.0 mg/kg/injection, schedule: Q01DX001 (ip), vehicle: other): 0 of 6

COc1ccc(OC)c(OC)c1CC(C)N (configuration not stated)
survivor count (dose: 100.0 mg/kg/injection, schedule: Q01DX009 (ip), vehicle: saline): 0 of 3

CC(=O)NC(C)(C)CC(C)(C)C
survivor count (dose: 50.0 mg/kg/injection, schedule: Q01DX009 (ip), vehicle: Klucel (hydroxypropylcellulose) (HPC)): 2 of 6
survivor count (dose: 100.0 mg/kg/injection, schedule: Q04DX003 (ip), vehicle: Klucel (hydroxypropylcellulose) (HPC)): 2 of 6
survivor count (dose: 200.0 mg/kg/injection, schedule: Q01DX001 (ip), vehicle: saline with Tween-80): 1 of 6
survivor count [2]: 0 of 6
survivor count (dose: 400.0 mg/kg/injection, schedule: Q01DX001 (ip), vehicle: saline with Tween-80): 0 of 6
survivor count (dose: 400.0 mg/kg/injection, schedule: Q04DX003 (ip), vehicle: Klucel (hydroxypropylcellulose) (HPC)): 0 of 6

CCCCOc1ccc(/C=N\N=C\c2ccc(OCCCC)cc2)cc1
survivor count (dose: 400.0 mg/kg/injection, schedule: Q01DX009 (ip), vehicle: saline with Tween-80): 5 of 6
